Where “and” joins values, the source holds several entries; their conditions need not be identical. Equal entries are not always repeated. The list shows a part of the results. Several reference drugs read as weak here; read low effects with care.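 Prematurely aging human mesenchymal stem cells without the Werner syndrome gene were monitored by automated live-cell imaging over three biological repeats. The top twenty drugs for increasing growth versus vehicle moved forward; no fixed cutoff was specified.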 Numbered stars: 1 amine (or outer) side, 2 acyl side, 3 side chain; on linkers, the order of the positions; unused ones are H or OH. Bridge positions count the residues as written; N and C are the ends. Square brackets hold non-standard residues; d marks the D form. Peptide text beside a SMILES is read from it. * marks the point of attachment. pTerphenylCO(4''-OnC5H11) = CCCCCOc1ccc(-c2ccc(-c3ccc(C(=O)*)cc3)cc2)cc1; Orn(4R-OH,5R-OH) = O=C([C@H](C[C@@H](O)[C@@H](O)N[*:3])N[*:1])[*:2]; hTyr(3S-OH,4S-OH) = N[C@H](C(=O)O)[C@H](O)[C@@H](O)c1ccc(O)cc1; Pro(3S-OH,4S-Me) = C[C@H]1CN[C@H](C(=O)O)[C@H]1O; Hyp = O=C(O)[C@@H]1C[C@@H](O)CN1
Test system: Werner syndrome hMSCs (WRN-/-)
Assay: relative cell density (fold change vs vehicle control); higher = more proliferation (geroprotective)
Settings: concentration (umol/L): 1, 6 days

| Structure (SMILES) | relative cell density (vehicle: DMSO) | relative cell density (vehicle: Water) |
| --- | --- | --- |
| Nc1ccc(O)c(C(=O)O)c1 | 1.03 |  |
| CC(C)NC[C@H](O)COc1ccc(CCOCC2CC2)cc1 | 1.15 |  |
| CCCCCCCC(=O)N[C@H](CN1CCCC1)[C@H](O)c1ccc2c(c1)OCCO2 | 0.997 |  |
| COC(=O)C1=C(C)NC(C)=C(C(=O)OC)C1c1ccccc1[N+](=O)[O-] | 0.973 |  |
| C#C[C@]1(O)CC[C@H]2[C@@H]3CCC4=CC(=O)CC[C@@H]4[C@H]3CC[C@@]21C | 0.878 |  |
| C=CCc1cc(OC)c(O)c(C(=O)NCCO)c1 | 1.17 |  |
| Nc1ccc(S(=O)(=O)Nc2ncccn2)cc1 | 1.23 and 1.04 |  |
| C#C[C@]1(OC(C)=O)CC[C@H]2[C@@H]3CCC4=C[C@@H](OC(C)=O)CC[C@@H]4[C@H]3CC[C@@]21C | 0.144 |  |
| O=C1C(CC[S+]([O-])c2ccccc2)C(=O)N(c2ccccc2)N1c1ccccc1 (centres undefined) | 1.25 |  |
| C[C@@H]1CC(=O)NN=C1c1ccc(NN=C(C#N)C#N)cc1 | 1.17 |  |
| O=C(Nc1cc(Cl)cc(Cl)c1O)c1c(O)c(Cl)cc(Cl)c1Cl | 1.11 |  |
| O=C(O)Cc1ccccc1Nc1c(Cl)cccc1Cl | 0.96 and 0.817 and 1.2 |  |
| C[C@@H](c1ncncc1F)[C@](O)(Cn1cncn1)c1ccc(F)cc1F | 1.43 |  |
| O=c1[nH]cc(F)c(=O)[nH]1 | 1.11 |  |
| C[C@]12C=CC(=O)C=C1CC[C@@H]1[C@@H]2[C@@H](O)C[C@@]2(C)[C@H]1CC[C@]2(O)C(=O)CO | 1.03 |  |
| CS(=O)(=O)c1ccc([C@@H](O)[C@@H](CO)NC(=O)C(Cl)Cl)cc1 | 1.22 |  |
| Cc1cncc(CN2CCC(=C3c4ccc(Cl)cc4CCc4cccnc43)CC2)c1 | 0.928 |  |
| CC(=O)Oc1cc(C(F)(F)F)ccc1C(=O)O | 1.07 |  |
| CNC(=O)c1ccc2cc([C@@]3(O)CCn4cncc43)ccc2c1 | 1.05 |  |
| CNC(=C[N+](=O)[O-])NCCSCc1ccc(CN(C)C)o1 | 1.09 |  |
| O=c1c(-c2ccc(O)cc2)coc2cc(O)cc(O)c12 | 1.04 |  |
| N[C@@H]1CN(c2c(F)cc3c(=O)c(C(=O)O)cn([C@@H]4C[C@@H]4F)c3c2Cl)CC12CC2 |  | 0.79 |
| CNC[C@H](O)c1cccc(O)c1 | 1.3 |  |
| CCC(=O)NS(=O)(=O)c1ccc(-c2c(-c3ccccc3)noc2C)cc1 | 1.25 |  |

| Structure (SMILES) | relative cell density (vehicle: DMSO) | relative cell density (vehicle: Water) |
| --- | --- | --- |
| N#C[C@@H]1CCCN1C(=O)CNC12CC3CC(CC(O)(C3)C1)C2 | 1 |  |
| CC(C)(CO)[C@@H](O)C(=O)NCCCO | 0.955 |  |
| CC(C)C[C@H](NC(=O)CNC(=O)c1cc(Cl)ccc1Cl)B(O)O | 0.265 |  |
| NS(=O)(=O)c1ccc(C(=O)O)cc1 | 1.27 |  |
| CO[C@H]1C[C@@H]2CC[C@@H](C)[C@@](O)(O2)C(=O)C(=O)N2CCCC[C@H]2C(=O)O[C@H]([C@H](C)C[C@@H]2CC[C@@H](O)[C@H](OC)C2)CC(=O)[C@H](C)/C=C(\C)[C@@H](O)[C@@H](OC)C(=O)[C@H](C)C[C@H](C)/C=C/C=C/C=C/1C | 0.672 |  |
| Cc1[nH]c(/C=C2\C(=O)Nc3ccccc32)c(C)c1CCC(=O)O | 0.886 |  |
| CN(CCOc1ccc(NS(C)(=O)=O)cc1)CCc1ccc(NS(C)(=O)=O)cc1 | 1.2 |  |
| CC(=O)N1CCN(c2ccc(OCC3COC(Cn4ccnc4)(c4ccc(Cl)cc4Cl)O3)cc2)CC1 (centres undefined) |  | 1.13 |
| CC(C)NCC(O)c1ccc(NS(C)(=O)=O)cc1 (centres undefined) | 1.29 |  |
| C#C[C@]1(O)CC[C@H]2[C@@H]3CCc4cc(OC)ccc4[C@H]3CC[C@@]21C | 1.2 |  |
| C1=N/C2=N/c3ccc(OCCN4CCCC4)c(c3)COC/C=C/COCc3cccc(c3)C(=C1)N2 | 0.503 |  |
| COc1ccc2cccc(CCNC(C)=O)c2c1 | 0.998 |  |
| O=C(O)P(=O)(O)O | 0.98 |  |
| Cc1nc(C)c(Cl)c(O)c1Cl |  | 1.17 |
| CCn1cc(C(=O)O)c(=O)c2cc(F)c(N3CCNCC3)nc21 | 1.15 and 1.06 |  |
| CC(=O)OCC(=O)NCCCOc1cccc(CN2CCCCC2)c1 | 1.21 |  |
| C[C@H](NCc1ccc(OCc2cccc(F)c2)cc1)C(N)=O | 1.34 |  |
| OC[C@@H](O)[C@@H](O)[C@H](O)[C@H](O)CO | 1.23 |  |
| Oc1ccc(C2CNCCc3c2cc(O)c(O)c3Cl)cc1 (centres undefined) | 1.37 |  |
| CC(C(=O)O)c1cccc(Oc2ccccc2)c1 (centres undefined) | 1.6 and 1.13 |  |
| CCCc1ncc(C[n+]2ccccc2C)c(N)n1 |  | 0.94 |
| Nc1ccc(S(=O)(=O)NC(=O)c2ccccc2)cc1 | 1.39 |  |
| C[N+](C)(C)CCOP(=O)(O)OP(=O)([O-])OC[C@H]1O[C@@H](n2ccc(N)nc2=O)[C@H](O)[C@@H]1O |  | 0.968 |
| CCCCCOc1ccc(-c2ccc(-c3ccc(C(=O)N[C@H]4C[C@@H](O)[C@@H](O)NC(=O)[C@@H]5[C@@H](O)[C@@H](C)CN5C(=O)[C@H]([C@@H](C)O)NC(=O)[C@H]([C@H](O)[C@@H](O)c5ccc(O)cc5)NC(=O)[C@@H]5C[C@@H](O)CN5C(=O)[C@H]([C@@H](C)O)NC4=O)cc3)cc2)cc1 ({pTerphenylCO(4''-OnC5H11)}-[Orn(4R-OH,5R-OH)]T[Hyp][hTyr(3S-OH,4S-OH)]T[Pro(3S-OH,4S-Me)]; lactam 1-C) | 0.942 |  |

5 compounds already listed, sorted by length of the SMILES, rising:

| Structure (SMILES) | relative cell density (vehicle: DMSO) | relative cell density (vehicle: Water) |
| --- | --- | --- |
| Cc1nc(C)c(Cl)c(O)c1Cl |  | 1.17 |
| CC(C)NCC(O)c1ccc(NS(C)(=O)=O)cc1 (centres undefined) | 1.29 |  |
| CC(C)C[C@H](NC(=O)CNC(=O)c1cc(Cl)ccc1Cl)B(O)O | 0.265 |  |
| C#C[C@]1(O)CC[C@H]2[C@@H]3CCc4cc(OC)ccc4[C@H]3CC[C@@]21C | 1.2 |  |
| C[N+](C)(C)CCOP(=O)(O)OP(=O)([O-])OC[C@H]1O[C@@H](n2ccc(N)nc2=O)[C@H](O)[C@@H]1O |  | 0.968 |

Following part.

| Structure (SMILES) | relative cell density (vehicle: DMSO) | relative cell density (vehicle: Water) |
| --- | --- | --- |
| CC(C)c1nc(N(C)S(C)(=O)=O)nc(-c2ccc(F)cc2)c1/C=C/[C@@H](O)C[C@@H](O)CC(=O)O | 1.06 |  |
| CCCOC(C(=O)OC1CCN(C)CC1)(c1ccccc1)c1ccccc1 | 1.1 |  |
| CCOCCn1c(C2CCN(CCc3ccc(C(C)(C)C(=O)O)cc3)CC2)nc2ccccc21 |  | 0.941 |
| CCN(CC)CCCC(C)Nc1ccnc2cc(Cl)ccc12 (centres undefined) |  | 0.698 |
| CS(=O)(=O)c1ccc([C@@H](O)[C@@H](CF)NC(=O)C(Cl)Cl)cc1 | 0.936 |  |
| C[C@@H](O)[C@H]1C(=O)N2C(C(=O)O)=C(SCCNC=N)C[C@H]12 |  | 0.934 |
| c1ccc2c(c1)CCCC2C1=NCCN1 (centres undefined) | 1.03 |  |
| COc1cccc(CCc2ccccc2OCC(CN(C)C)OC(=O)CCC(=O)O)c1 (centres undefined) | 1 |  |
| CC(C)OC(=O)C(C(=O)OC(C)C)=C1SC=CS1 | 1.14 |  |
| C1N2CN3CN1CN(C2)C3 | 1.01 |  |
| CCCCCN(C)CCC(O)(P(=O)(O)O)P(=O)(O)O |  | 0.807 |
| N[C@@H](CS)C(=O)O | 1.32 |  |
| CCOC(=O)N1CCC(=C2c3ccc(Cl)cc3CCc3cccnc32)CC1 | 1.08 |  |
| Nc1nc(F)nc2c1ncn2[C@@H]1O[C@H](COP(=O)(O)O)[C@@H](O)[C@@H]1O | 0.958 |  |
| CNC[C@H](O)[C@@H](O)[C@H](O)[C@H](O)CO.CNC[C@H](O)[C@@H](O)[C@H](O)[C@H](O)CO.O=C([O-])CN(CCN(CC(=O)[O-])CC(=O)O)CCN(CC(=O)[O-])CC(=O)O.[Gd+3] | 1.34 |  |
| COc1ccc(CC(C)NCC(O)c2ccc(O)c(NC=O)c2)cc1 (centres undefined) | 1.25 |  |
| CC(C)C[C@H](NC(=O)[C@H](Cc1ccccc1)NC(=O)c1cnccn1)B(O)O | 0.216 |  |
| CS(=O)(=O)c1ccc(C(=O)Nc2ccc(Cl)c(-c3ccccn3)c2)c(Cl)c1 | 1.3 |  |
| Oc1c(Br)cc(Br)c2cccnc12 | 0.0845 |  |
| C[C@H](N[C@@H](CCc1ccccc1)C(=O)O)C(=O)N1CCC[C@H]1C(=O)O | 0.748 |  |
| NC(=O)N1CCC(CC(=O)N2CCC([C@H]3c4ncc(Br)cc4CCc4cc(Cl)cc(Br)c43)CC2)CC1 | 0.624 |  |
| COCCCC/C(=N\OCCN)c1ccc(C(F)(F)F)cc1 | 1.11 |  |
| COC(=O)[C@H](c1ccccc1Cl)N1CCc2sccc2C1 | 0.928 |  |
| CCCSc1ccc2[nH]c(NC(=O)OC)nc2c1 | 0.357 |  |

| Structure (SMILES) | relative cell density (vehicle: DMSO) | relative cell density (vehicle: Water) |
| --- | --- | --- |
| Cc1c(Cl)cccc1Nc1ccccc1C(=O)O | 1.36 |  |
| CC=C(C)C(=O)OC1C(OC(C)=O)C2(CO)C(O)CC3(C)C(=CCC4C5(C)CCC(OC6OC(C(=O)O)C(OC7OC(CO)C(O)C(O)C7O)C(O)C6OC6OC(CO)C(O)C(O)C6O)C(C)(CO)C5CCC43C)C2CC1(C)C (centres undefined) | 0.0072 |  |
| CO[C@H]1/C=C/O[C@@]2(C)Oc3c(C)c(O)c4c(O)c(c(/C=N/N5CCN(C)CC5)c(O)c4c3C2=O)NC(=O)/C(C)=C\C=C\[C@H](C)[C@H](O)[C@@H](C)[C@@H](O)[C@@H](C)[C@H](OC(C)=O)[C@@H]1C | 0.918 |  |
| Cc1c(C(C)C)c(=O)n(-c2ccccc2)n1C | 1.3 |  |
| CCc1ccc(CCOc2ccc(CC3SC(=O)NC3=O)cc2)nc1 (centres undefined) | 1.27 |  |
| CNC[C@@H](O)c1ccc(O)c(O)c1 | 1.18 |  |
| CC(C)Nc1cc(-c2c[nH]c(C(=O)N[C@H](CO)c3cccc(Cl)c3)c2)c(Cl)cn1 | 0.738 |  |
| Cc1ccc(N(CC2=NCCN2)c2cccc(O)c2)cc1 | 1.31 |  |
| Clc1ccc2c(c1)C(N1CCNCC1)=Nc1ccccc1O2 |  | 1.18 |
| O=C1c2ccccc2C(=O)C1c1ccccc1 | 1.35 |  |
| O=C(Cn1ccnc1[N+](=O)[O-])NCc1ccccc1 | 1.05 |  |
| O=C(c1cc(Cc2n[nH]c(=O)c3ccccc23)ccc1F)N1CCN(C(=O)C2CC2)CC1 | 0.692 |  |
| O=C(O)CCc1nc(-c2ccccc2)c(-c2ccccc2)o1 | 1.16 |  |
| CC(C)(Oc1ccc(CCNC(=O)c2ccc(Cl)cc2)cc1)C(=O)O | 0.801 |  |
| OCCN1CCN(CCCN2c3ccccc3Sc3ccc(C(F)(F)F)cc32)CC1 | 1.25 |  |
| c1ccc(CC2=NCCN2)cc1 | 1.24 |  |
| COc1cccc(-c2c(C)n(Cc3c(F)cccc3C(F)(F)F)c(=O)n(C[C@H](NCCCC(=O)O)c3ccccc3)c2=O)c1F | 1.24 |  |
| CC(C(=O)O)c1ccc(CC2CCCC2=O)cc1 (centres undefined) | 1.22 |  |
| CC[C@H]1OC(=O)[C@H](C)[C@@H](O[C@H]2C[C@@](C)(OC)[C@@H](O)[C@H](C)O2)[C@H](C)[C@@H](O[C@@H]2O[C@H](C)C[C@H](N(C)C)[C@H]2O)[C@](C)(O)C[C@@H](C)C(=O)[C@H](C)[C@@H](O)[C@]1(C)O | 0.923 |  |
| Nc1c(CC(=O)O)cccc1C(=O)c1ccccc1 | 1.26 |  |
| CCCCOCCOCCOCc1cc2c(cc1CCC)OCO2 | 1.01 |  |
| CC(=O)Oc1ccccc1C(=O)Nc1ncc([N+](=O)[O-])s1 | 1.04 |  |

Reference: the supplement of paper PMC9226226
